Data from the supplement of paper PMC9135407.
Several values for one entry are separate records, joined by “and”; a condition that tells them apart may be missing. Equal values may be shown once. Where a name gives a salt, the structure may show the parent alone. ± gives the standard deviation of the averaged measurements. This is one part of the list. Part of the spread comes from offsets between plates or batches.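 Primary human stellate myofibroblasts activated in culture; inactivation shown by regained lipid droplets. Readout: fraction of Hoechst-counted cells exceeding a per-plate Bodipy threshold, duplicate wells, each plate with DMSO negative and nortriptyline positive controls. Hits: control-normalized score beyond the plate's top-tenth-percentile nortriptyline wells, or among its three best wells. Final well concentrations unstated.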

Tested on: primary human hepatic stellate cells (donor 1)
Assay: percent Bodipy-positive cells; higher = more lipid droplet accumulation
Settings: 48 h
[1] = library stock concentration: 3.33 mM
[2] = library stock concentration: 10 mM
[3] = library stock concentration: 1 mM

c1ccc(NCc2ccc(CNc3ccccn3)cc2)nc1
percent Bodipy-positive cells [1]: 9.67 ± 1.9% | percent Bodipy-positive cells [2]: 21.3 ± 8.8%

Oc1ccc2ccccc2c1 [beta-NAPHTHOL]
percent Bodipy-positive cells [2]: 20.1 ± 5.6%

CCOC(=O)[C@@H](N)Cc1ccc(-c2cc(O[C@H](c3ccc(Cl)cc3-n3ccc(C)n3)C(F)(F)F)nc(N)n2)cc1 [Telotristat Etiprate (LX 1606 Hippurate)]
percent Bodipy-positive cells [1]: 18.5 ± 9.2% | percent Bodipy-positive cells [2]: 92 ± 4.4%

CCCC/C=C\CCCCCCCC(=O)OC [Myristoleic Acid methyl ester]
percent Bodipy-positive cells [3]: 14.2 ± 7.7%

COc1c2occc2cc2ccc(=O)oc12 [Methoxy-8-psoralen]
percent Bodipy-positive cells: 26.6 ± 5.9%

COc1c2occc2cc2ccc(=O)oc12 [Methoxsalen]
percent Bodipy-positive cells [1]: 10.5 ± 1.4% | percent Bodipy-positive cells (library stock concentration: 9.3 mM): 3.75 ± 2.8%

N=C(NCCCCCCNC(=N)NC(=N)Nc1ccc(Cl)cc1)NC(=N)Nc1ccc(Cl)cc1 [Chlorhexidine]
percent Bodipy-positive cells: 40.2 ± 14% | percent Bodipy-positive cells (library stock concentration: 3.5 mM): 3.92 ± 0.69% | percent Bodipy-positive cells [2]: 10.1 ± 3.3%

N=C(NCCCCCCNC(=N)NC(=N)Nc1ccc(Cl)cc1)NC(=N)Nc1ccc(Cl)cc1 [Chlorhexidine HCl]
percent Bodipy-positive cells [1]: 24.2 ± 5.1% | percent Bodipy-positive cells [2]: 100%

NCc1ccccc1CC(=O)N[C@@H]1C(=O)N2C(C(=O)O)=C(CSc3nnnn3CC(=O)O)CS[C@H]12 [Ceforanide]
percent Bodipy-positive cells: 27.7 ± 5.8%

CN1CCN(C2=Nc3ccccc3Oc3ccc(Cl)cc32)CC1 [Loxapine succinate]
percent Bodipy-positive cells: 52.5 ± 7.3% | percent Bodipy-positive cells (library stock concentration: 4.5 mM): 39.1 ± 2.8% | percent Bodipy-positive cells [2]: 78.7% and 66.3%

CN1CCN(C2=Nc3ccccc3Oc3ccc(Cl)cc32)CC1 [Loxapine Succinate]
percent Bodipy-positive cells [1]: 30.5 ± 9.9% | percent Bodipy-positive cells [2]: 74.7 ± 3.5%

CN1CCN(C2=Nc3ccccc3Oc3ccc(Cl)cc32)CC1
percent Bodipy-positive cells [2]: 53.9 ± 2.9%

CC(C)CC(N)=O [Isovaleramide]
percent Bodipy-positive cells [1]: 14.7 ± 3.2% | percent Bodipy-positive cells [2]: 50.6 ± 17%

CC(C)CC(N)=O
percent Bodipy-positive cells [2]: 49.4 ± 5%

CC1c2cccc(O)c2C(O)=C2C(=O)C3(O)C(O)=C(C(N)=O)C(=O)C(N(C)C)C3C(O)C21 (stereo not drawn) [Doxycycline hydrochloride]
percent Bodipy-positive cells [2]: 45.4 ± 7.9%

Clc1ccc(CCC(Cn2ccnc2)Sc2c(Cl)cccc2Cl)cc1 (stereo not drawn) [Butoconazole nitrate]
percent Bodipy-positive cells: 32 ± 1.6% | percent Bodipy-positive cells [1]: 8.75 ± 0.48% | percent Bodipy-positive cells [2]: 33.1 ± 12%

Clc1ccc(CCC(Cn2ccnc2)Sc2c(Cl)cccc2Cl)cc1 (stereo not drawn)
percent Bodipy-positive cells [2]: 59.4 ± 12%

C[C@@]1(C(=O)Nc2ccc(F)nc2)CCCN1c1nc(Nc2cc(C3CC3)n[nH]2)c2cccn2n1
percent Bodipy-positive cells [1]: 7.85 ± 2.3% | percent Bodipy-positive cells [2]: 70.6 ± 8.9%

CC1(C)CC(Nc2nccc(-c3cnn(-c4ccccc4)c3)n2)CC(C)(C)N1
percent Bodipy-positive cells [2]: 99.73 ± 0.38%

CN(C)C(=O)Nc1cccc(-c2ccc(N(C)C)cc2)c1 [Atglistatin]
percent Bodipy-positive cells [1]: 25.2 ± 0.82% | percent Bodipy-positive cells [2]: 28.7 ± 1.6%

N[C@H](C(=O)O)c1ccc(O)c(C(=O)O)c1 [(S)-3-Carboxy-4-hydroxyphenylglycine]
percent Bodipy-positive cells [2]: 5.45 ± 2.5%

N#Cc1ccc(C(c2ccc(C#N)cc2)n2cncn2)cc1
percent Bodipy-positive cells [2]: 7.38 ± 0.41%

N#Cc1ccc(C(c2ccc(C#N)cc2)n2cncn2)cc1 [Letrozole]
percent Bodipy-positive cells: 8.36 ± 1.1% | percent Bodipy-positive cells [1]: 11.1 ± 3.4% | percent Bodipy-positive cells (library stock concentration: 7 mM): 13.1 ± 6.5% | percent Bodipy-positive cells [2]: 13.3 ± 3.3%

CCCCC/C=C\C[C@H](O)/C=C/C=C\C/C=C\CCCC(=O)O
percent Bodipy-positive cells (library stock concentration: 100 uM): 10.8 ± 6.6%

C[N+]1(C)CCC(OC(=O)C(O)(c2ccccc2)C2CCCC2)C1 (stereo not drawn)
percent Bodipy-positive cells [2]: 5.93 ± 0.13%

C[N+]1(C)CCC(OC(=O)C(O)(c2ccccc2)C2CCCC2)C1 (stereo not drawn) [Glycopyrrolate]
percent Bodipy-positive cells: 8.31 ± 0.69% | percent Bodipy-positive cells (library stock concentration: 5 mM): 1.09 ± 1.5%

C[C@@H]1C[C@H]2O[C@@H]2/C=C\C=C\C(=O)Cc2c(Cl)c(O)cc(O)c2C(=O)O1 [Radicicol]
percent Bodipy-positive cells [3]: 54.2 ± 5.8%

O=C(Nc1cccc(Cl)c1)c1ccccn1
percent Bodipy-positive cells [1]: 8.37 ± 1% | percent Bodipy-positive cells [2]: 13.7 ± 4.2%

O=C(Nc1ccc([N+](=O)[O-])cc1Cl)c1cc(Cl)ccc1O [Niclosamide]
percent Bodipy-positive cells (library stock concentration: 6.1 mM): 99.2 ± 0.21% | percent Bodipy-positive cells [2]: 99.56 ± 0.0064%

Nc1c(CC(=O)O)cccc1C(=O)c1ccccc1 [Amfenac Sodium Monohydrate]
percent Bodipy-positive cells [1]: 8.18 ± 1.5% | percent Bodipy-positive cells [2]: 25.6 ± 2.2%

CC(C)(C)C(=O)Nc1ccc2c(c1)C(=O)C(=O)c1ccccc1-2
percent Bodipy-positive cells [1]: 96 ± 5.7% | percent Bodipy-positive cells [2]: 100%

CN1CCCN(C(c2ccccc2)c2ccc(Cl)cc2)CC1.Cl.Cl (stereo not drawn) [Homochlorcyclizine dihydrochloride]
percent Bodipy-positive cells: 86.84 ± 0.2%

N=C1NC(=O)/C(=C/c2ccc(O)cc2)S1 [Mirin]
percent Bodipy-positive cells [3]: 9.05 ± 2.4%

CN(C)CCCN1c2ccccc2Sc2ccc(C(F)(F)F)cc21 [Triflupromazine hydrochloride]
percent Bodipy-positive cells: 69.4 ± 7.9% | percent Bodipy-positive cells (library stock concentration: 5.1 mM): 91.273 ± 0.044% | percent Bodipy-positive cells [2]: 96% and 78.6%

COc1ccc([C@@H]2CC(=O)c3c(O)cc(O)cc3O2)cc1O [Hesperetin]
percent Bodipy-positive cells: 28 ± 3.5% | percent Bodipy-positive cells [3]: 11.16 ± 0.032% | percent Bodipy-positive cells [1]: 8.31 ± 0.82% | percent Bodipy-positive cells [2]: 18 ± 0.34%

CCCCOCCOCCOCc1cc2c(cc1CCC)OCO2
percent Bodipy-positive cells [2]: 50.3 ± 5.6%

O=c1cc(-c2ccccc2)oc2c(O)c(O)ccc12 [7,8-dihydroxyflavone]
percent Bodipy-positive cells [2]: 40.7 ± 5.1%

O=c1cc(-c2ccccc2)oc2c(O)c(O)ccc12 [7,8-Dihydroxyflavone hydrate]
percent Bodipy-positive cells [2]: 28.7 ± 7.5%

CCN(CC)CCOC(=O)C1(C2CCCCC2)CCCCC1 [Dicyclomine hydrochloride]
percent Bodipy-positive cells: 69.2 ± 6.1% | percent Bodipy-positive cells (library stock concentration: 5.8 mM): 26.7 ± 14%

CCN(CC)CCOC(=O)C1(C2CCCCC2)CCCCC1 [Bentyl]
percent Bodipy-positive cells [2]: 94.5 ± 2.6%

CCCc1cc(C)[nH]c(=O)c1CNC(=O)c1cc(-c2ccc(N3CCN(C(C)C)CC3)nc2)cc2c1cnn2C(C)C
percent Bodipy-positive cells [1]: 83 ± 4.5% | percent Bodipy-positive cells [2]: 96.2 ± 0.73%

CC1(C)OC(=O)C(OCC2CC2)=C1c1ccc(S(C)(=O)=O)cc1
percent Bodipy-positive cells [2]: 20.4 ± 7.4%

CC(N/C(=N\C#N)Nc1ccncc1)C(C)(C)C (stereo not drawn) [Pinacidil]
percent Bodipy-positive cells: 19.5 ± 3.5% | percent Bodipy-positive cells (library stock concentration: 20.4 mM): 22.7 ± 0.68%

CC(N/C(=N\C#N)Nc1ccncc1)C(C)(C)C (stereo not drawn) [Pinacidil monohydrate]
percent Bodipy-positive cells [2]: 11.6 ± 0.46%

CCCCCCCCCCCCCCCC(=O)OCC(O)C1OC(=O)C(O)=C1O [L-Ascorbyl 6-palmitate]
percent Bodipy-positive cells [1]: 9.1 ± 0.4% | percent Bodipy-positive cells [2]: 33.2 ± 17%

NC(=O)c1ccc(N(C(N)=O)c2c(F)cccc2F)nc1-c1ccc(F)cc1F
percent Bodipy-positive cells (library stock concentration: 80 uM): 21.9 ± 18% | percent Bodipy-positive cells (library stock concentration: 400 uM): 12.9% and 16.3% | percent Bodipy-positive cells (library stock concentration: 2 mM): 9.93% and 28.4% | percent Bodipy-positive cells [1]: 12.7 ± 6.8% | percent Bodipy-positive cells [2]: 12.6% and 13.1% and 25.3%

C[N+]1(C)CCC(OC(=O)C(c2ccccc2)c2ccccc2)CC1
percent Bodipy-positive cells [2]: 11.2 ± 5.9%

C[N+]1(C)CCC(OC(=O)C(c2ccccc2)c2ccccc2)CC1 [4-DAMP methiodide]
percent Bodipy-positive cells [2]: 23.4 ± 9%

Cc1[nH]ccc2c1[nH]c1cc(=O)ccc12 [Harmol hydrochloride monohydrate]
percent Bodipy-positive cells: 84.3 ± 14%

O=Cc1c2[nH]c3ccccc3c2cc2[nH]c3ccccc3c12 [6-Formylindolo [3,2-B] carbazole]
percent Bodipy-positive cells [3]: 25.8 ± 16%

CC(=O)Oc1ccccc1C(=O)Nc1ncc([N+](=O)[O-])s1
percent Bodipy-positive cells [2]: 32.2 ± 4.5%

CC(=O)Oc1ccccc1C(=O)Nc1ncc([N+](=O)[O-])s1 [Nitazoxanide]
percent Bodipy-positive cells [1]: 15.7 ± 4.8% | percent Bodipy-positive cells [2]: 40.8 ± 4.4%
